Data as given in PubChem BioAssay AID652243 (Drosophila RNAi Screening Center, 2013)

- Screen: 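Fly regulators of androgen-dependent reporter output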 (primary screen)
- Cells: Drosophila S2R+ cells
- Reagents: long dsRNA against Drosophila genes
- Duration: 72 h (48 h, then 24 h hormone)
- Treatment: synthetic androgen R1881 at 10 nM for 24 h
- Detection: 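Firefly light from an androgen-responsive reporter and Renilla control light per well, raw and unnormalised, for each of two replicates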
- Direction: firefly reporter light: higher = more light from androgen-responsive reporter; Renilla control light: higher = more constitutive control signal (cell number, transfection)
- Active means: 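Across duplicate plates, a knock-down whose log firefly/Renilla ratio shifted a set fold down or up from the GFP/LacZ control mean was a hit; the downward cut appears as both 1.5 and 3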
- Calls: active = hit: reporter lowered or raised; inactive = no hit
The screen tested about 24,000 reagents; shown is an unselected part of those with a known target gene and a result. Over the whole deposit, 246 (1%) were called active. 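Plates not normalised; calls are printed but the firefly/Renilla ratio behind them is not deposited; fold cut for lowering reported inconsistently.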 The raw values are shown without normalisation. Not given: the amount of reagent.

The first 3 entries, to show the layout:
CG10907 [DRSC09804] — firefly reporter light, replicate 1: 1.85e5; firefly reporter light, replicate 2: 1.93e5; Renilla control light, replicate 1: 1.91e6; Renilla control light, replicate 2: 1.53e6; outcome: inactive
CG17570 [DRSC01770] — firefly reporter light, replicate 1: 1.61e5; firefly reporter light, replicate 2: 1.69e5; Renilla control light, replicate 1: 5.99e5; Renilla control light, replicate 2: 5.50e5; outcome: inactive
CG17570 [DRSC03754] — firefly reporter light, replicate 1: 1.52e5; firefly reporter light, replicate 2: 1.24e5; Renilla control light, replicate 1: 1.27e6; Renilla control light, replicate 2: 1.14e6; outcome: inactive

Results, repeating the preview:
CG10907 [DRSC09804] — firefly reporter light, replicate 1: 1.85e5; firefly reporter light, replicate 2: 1.93e5; Renilla control light, replicate 1: 1.91e6; Renilla control light, replicate 2: 1.53e6; outcome: inactive
CG17570 [DRSC01770] — firefly reporter light, replicate 1: 1.61e5; firefly reporter light, replicate 2: 1.69e5; Renilla control light, replicate 1: 5.99e5; Renilla control light, replicate 2: 5.50e5; outcome: inactive
CG17570 [DRSC03754] — firefly reporter light, replicate 1: 1.52e5; firefly reporter light, replicate 2: 1.24e5; Renilla control light, replicate 1: 1.27e6; Renilla control light, replicate 2: 1.14e6; outcome: inactive
Asap [DRSC06493] — firefly reporter light, replicate 1: 5.01e5; firefly reporter light, replicate 2: 3.63e5; Renilla control light, replicate 1: 2.45e6; Renilla control light, replicate 2: 1.89e6; outcome: inactive
Asap [DRSC06830] — firefly reporter light, replicate 1: 9.80e5; firefly reporter light, replicate 2: 4.70e5; Renilla control light, replicate 1: 1.49e6; Renilla control light, replicate 2: 9.38e5; outcome: inactive
CG16721 [DRSC18113] — firefly reporter light, replicate 1: 1.03e5; firefly reporter light, replicate 2: 87488; Renilla control light, replicate 1: 8.46e5; Renilla control light, replicate 2: 6.03e5; outcome: inactive
CG9445 [DRSC05006] — firefly reporter light, replicate 1: 2.92e5; firefly reporter light, replicate 2: 2.53e5; Renilla control light, replicate 1: 2.30e6; Renilla control light, replicate 2: 1.79e6; outcome: inactive
Pen [DRSC03396] — firefly reporter light, replicate 1: 9.21e5; firefly reporter light, replicate 2: 1.19e6; Renilla control light, replicate 1: 1.21e6; Renilla control light, replicate 2: 1.92e6; outcome: inactive
Pen [DRSC39160] — firefly reporter light, replicate 1: 6.45e5; firefly reporter light, replicate 2: 6.24e5; Renilla control light, replicate 1: 1.92e6; Renilla control light, replicate 2: 1.80e6; outcome: inactive
TotZ [DRSC13450] — firefly reporter light, replicate 1: 1.35e5; firefly reporter light, replicate 2: 1.87e5; Renilla control light, replicate 1: 3.48e5; Renilla control light, replicate 2: 2.35e5; outcome: inactive
tay [DRSC20142] — firefly reporter light, replicate 1: 1.60e5; firefly reporter light, replicate 2: 1.02e5; Renilla control light, replicate 1: 7.92e5; Renilla control light, replicate 2: 6.10e5; outcome: inactive
CG7685 [DRSC16285] — firefly reporter light, replicate 1: 1.50e5; firefly reporter light, replicate 2: 1.09e5; Renilla control light, replicate 1: 1.66e6; Renilla control light, replicate 2: 1.77e6; outcome: inactive
CG7685 [DRSC27560] — firefly reporter light, replicate 1: 3.26e5; firefly reporter light, replicate 2: 2.68e5; Renilla control light, replicate 1: 7.75e5; Renilla control light, replicate 2: 8.82e5; outcome: inactive
CG3841 [DRSC02730] — firefly reporter light, replicate 1: 2.13e5; firefly reporter light, replicate 2: 1.30e5; Renilla control light, replicate 1: 1.60e6; Renilla control light, replicate 2: 1.41e6; outcome: inactive
CG13185 [DRSC06310] — firefly reporter light, replicate 1: 7.24e5; firefly reporter light, replicate 2: 1.37e6; Renilla control light, replicate 1: 1.02e6; Renilla control light, replicate 2: 2.05e6; outcome: inactive
PIG-Wb [DRSC08526] — firefly reporter light, replicate 1: 1.56e5; firefly reporter light, replicate 2: 1.85e5; Renilla control light, replicate 1: 7.26e5; Renilla control light, replicate 2: 1.13e6; outcome: inactive
CG1105 [DRSC12528] — firefly reporter light, replicate 1: 39276; firefly reporter light, replicate 2: 29797; Renilla control light, replicate 1: 3.84e5; Renilla control light, replicate 2: 3.49e5; outcome: inactive
CG1105 [DRSC27366] — firefly reporter light, replicate 1: 6.54e5; firefly reporter light, replicate 2: 4.50e5; Renilla control light, replicate 1: 8.34e5; Renilla control light, replicate 2: 9.41e5; outcome: inactive
CR15280 [DRSC01953] — firefly reporter light, replicate 1: 1.42e5; firefly reporter light, replicate 2: 1.66e5; Renilla control light, replicate 1: 1.29e6; Renilla control light, replicate 2: 1.58e6; outcome: inactive
CR15280 [DRSC24110] — firefly reporter light, replicate 1: 9.73e5; firefly reporter light, replicate 2: 1.00e6; Renilla control light, replicate 1: 8.35e5; Renilla control light, replicate 2: 7.71e5; outcome: inactive
CG40378 (retired record) [DRSC22174] — firefly reporter light, replicate 1: 6.85e5; firefly reporter light, replicate 2: 5.42e5; Renilla control light, replicate 1: 2.31e6; Renilla control light, replicate 2: 2.10e6; outcome: inactive
ksr [DRSC12379] — firefly reporter light, replicate 1: 45164; firefly reporter light, replicate 2: 69529; Renilla control light, replicate 1: 8.52e5; Renilla control light, replicate 2: 1.01e6; outcome: inactive
ksr [DRSC36701] — firefly reporter light, replicate 1: 6.60e5; firefly reporter light, replicate 2: 5.90e5; Renilla control light, replicate 1: 1.36e6; Renilla control light, replicate 2: 1.36e6; outcome: inactive
ksr [DRSC36702] — outcome: inactive
CG31793 [DRSC02605] — firefly reporter light, replicate 1: 1.11e5; firefly reporter light, replicate 2: 78792; Renilla control light, replicate 1: 9.45e5; Renilla control light, replicate 2: 1.08e6; outcome: inactive
CG31793 [DRSC24308] — firefly reporter light, replicate 1: 5.94e5; firefly reporter light, replicate 2: 5.45e5; Renilla control light, replicate 1: 6.14e5; Renilla control light, replicate 2: 7.21e5; outcome: inactive
senju [DRSC02366] — firefly reporter light, replicate 1: 2.03e5; firefly reporter light, replicate 2: 2.18e5; Renilla control light, replicate 1: 2.18e6; Renilla control light, replicate 2: 1.86e6; outcome: inactive
